Reference: the supplement of paper PMC12067093, “Discovery and optimisation of a covalent ligand for TRIM25 and its application to targeted protein ubiquitination” (Chemical Science, 2025)
Some of the results follow.

The chains behind the UniProt entries cited, without tags or fusion partners. Where a name states a change or a piece, a line headed by the entry shows the natural chain unless it says otherwise.
UniProt Q8IWA0: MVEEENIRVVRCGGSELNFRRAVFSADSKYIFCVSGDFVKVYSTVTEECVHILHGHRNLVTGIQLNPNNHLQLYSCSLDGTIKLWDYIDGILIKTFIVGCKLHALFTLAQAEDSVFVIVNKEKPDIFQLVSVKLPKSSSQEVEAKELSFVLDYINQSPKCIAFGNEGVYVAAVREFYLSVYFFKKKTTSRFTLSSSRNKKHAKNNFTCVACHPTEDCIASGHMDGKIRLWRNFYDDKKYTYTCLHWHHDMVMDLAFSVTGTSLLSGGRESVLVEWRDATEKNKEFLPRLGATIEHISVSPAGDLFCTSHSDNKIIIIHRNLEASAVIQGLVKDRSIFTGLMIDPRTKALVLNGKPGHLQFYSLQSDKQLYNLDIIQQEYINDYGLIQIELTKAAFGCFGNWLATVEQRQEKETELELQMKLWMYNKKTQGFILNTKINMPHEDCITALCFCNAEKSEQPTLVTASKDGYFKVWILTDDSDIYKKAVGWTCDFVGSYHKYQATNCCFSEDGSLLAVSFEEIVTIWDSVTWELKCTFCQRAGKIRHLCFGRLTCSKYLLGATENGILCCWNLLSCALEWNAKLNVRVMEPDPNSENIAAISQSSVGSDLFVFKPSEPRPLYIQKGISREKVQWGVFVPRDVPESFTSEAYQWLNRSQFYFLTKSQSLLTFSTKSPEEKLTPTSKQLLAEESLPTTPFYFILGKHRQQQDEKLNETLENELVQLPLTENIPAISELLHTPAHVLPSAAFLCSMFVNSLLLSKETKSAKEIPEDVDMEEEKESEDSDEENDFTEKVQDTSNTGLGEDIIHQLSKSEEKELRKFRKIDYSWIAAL
UniProt Q9H7D7: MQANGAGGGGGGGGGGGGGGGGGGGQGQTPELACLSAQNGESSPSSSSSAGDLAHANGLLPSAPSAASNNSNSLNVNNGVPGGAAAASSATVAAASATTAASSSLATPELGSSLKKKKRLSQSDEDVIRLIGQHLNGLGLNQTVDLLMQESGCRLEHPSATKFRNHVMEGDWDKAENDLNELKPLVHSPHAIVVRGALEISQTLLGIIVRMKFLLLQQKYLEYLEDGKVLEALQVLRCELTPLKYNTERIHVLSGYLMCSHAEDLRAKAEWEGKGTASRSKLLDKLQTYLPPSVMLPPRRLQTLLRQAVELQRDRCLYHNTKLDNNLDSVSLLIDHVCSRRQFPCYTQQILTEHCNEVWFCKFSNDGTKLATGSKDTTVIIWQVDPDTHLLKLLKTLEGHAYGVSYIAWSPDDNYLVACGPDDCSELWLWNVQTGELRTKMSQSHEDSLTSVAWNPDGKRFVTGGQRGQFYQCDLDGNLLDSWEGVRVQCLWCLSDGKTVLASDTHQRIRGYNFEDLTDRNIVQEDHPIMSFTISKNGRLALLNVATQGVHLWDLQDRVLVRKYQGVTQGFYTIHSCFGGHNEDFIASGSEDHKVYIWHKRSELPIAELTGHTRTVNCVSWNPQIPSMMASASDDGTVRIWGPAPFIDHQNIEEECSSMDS
UniProt Q8NI36: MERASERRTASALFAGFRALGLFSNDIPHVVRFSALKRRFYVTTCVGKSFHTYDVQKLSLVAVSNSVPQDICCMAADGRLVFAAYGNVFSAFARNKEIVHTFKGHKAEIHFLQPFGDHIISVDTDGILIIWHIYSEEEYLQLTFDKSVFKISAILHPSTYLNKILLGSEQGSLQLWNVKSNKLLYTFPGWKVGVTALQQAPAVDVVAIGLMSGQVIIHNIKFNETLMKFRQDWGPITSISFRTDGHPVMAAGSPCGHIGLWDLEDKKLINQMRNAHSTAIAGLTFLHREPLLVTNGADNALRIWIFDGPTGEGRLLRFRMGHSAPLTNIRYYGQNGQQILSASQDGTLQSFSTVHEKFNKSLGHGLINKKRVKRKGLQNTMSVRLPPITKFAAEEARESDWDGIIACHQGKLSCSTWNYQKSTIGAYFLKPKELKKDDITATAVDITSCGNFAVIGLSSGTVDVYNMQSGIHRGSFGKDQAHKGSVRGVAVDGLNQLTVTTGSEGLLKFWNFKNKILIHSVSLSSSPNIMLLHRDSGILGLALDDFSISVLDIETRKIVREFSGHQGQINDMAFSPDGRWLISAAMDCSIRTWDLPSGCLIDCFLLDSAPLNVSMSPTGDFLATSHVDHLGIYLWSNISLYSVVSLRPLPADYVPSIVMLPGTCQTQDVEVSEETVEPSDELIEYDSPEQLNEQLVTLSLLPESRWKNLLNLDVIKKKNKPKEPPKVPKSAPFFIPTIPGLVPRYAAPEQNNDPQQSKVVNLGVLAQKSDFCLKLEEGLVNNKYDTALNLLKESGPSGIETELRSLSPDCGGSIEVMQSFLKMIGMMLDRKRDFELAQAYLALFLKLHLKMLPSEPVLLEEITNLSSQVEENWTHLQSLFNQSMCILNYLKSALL
UniProt Q8IWB7: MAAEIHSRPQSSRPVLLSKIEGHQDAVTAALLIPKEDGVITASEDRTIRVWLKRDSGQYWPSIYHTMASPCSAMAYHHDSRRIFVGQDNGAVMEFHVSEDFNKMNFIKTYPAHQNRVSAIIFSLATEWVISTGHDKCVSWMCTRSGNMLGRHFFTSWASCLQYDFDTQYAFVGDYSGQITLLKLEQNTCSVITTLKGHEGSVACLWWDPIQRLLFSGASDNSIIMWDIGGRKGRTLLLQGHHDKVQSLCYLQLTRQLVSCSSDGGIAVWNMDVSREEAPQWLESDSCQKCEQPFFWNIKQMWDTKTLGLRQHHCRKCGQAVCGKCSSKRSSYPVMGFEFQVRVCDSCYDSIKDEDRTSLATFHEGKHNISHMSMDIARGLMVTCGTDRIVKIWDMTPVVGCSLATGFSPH
UniProt Q9BYP7: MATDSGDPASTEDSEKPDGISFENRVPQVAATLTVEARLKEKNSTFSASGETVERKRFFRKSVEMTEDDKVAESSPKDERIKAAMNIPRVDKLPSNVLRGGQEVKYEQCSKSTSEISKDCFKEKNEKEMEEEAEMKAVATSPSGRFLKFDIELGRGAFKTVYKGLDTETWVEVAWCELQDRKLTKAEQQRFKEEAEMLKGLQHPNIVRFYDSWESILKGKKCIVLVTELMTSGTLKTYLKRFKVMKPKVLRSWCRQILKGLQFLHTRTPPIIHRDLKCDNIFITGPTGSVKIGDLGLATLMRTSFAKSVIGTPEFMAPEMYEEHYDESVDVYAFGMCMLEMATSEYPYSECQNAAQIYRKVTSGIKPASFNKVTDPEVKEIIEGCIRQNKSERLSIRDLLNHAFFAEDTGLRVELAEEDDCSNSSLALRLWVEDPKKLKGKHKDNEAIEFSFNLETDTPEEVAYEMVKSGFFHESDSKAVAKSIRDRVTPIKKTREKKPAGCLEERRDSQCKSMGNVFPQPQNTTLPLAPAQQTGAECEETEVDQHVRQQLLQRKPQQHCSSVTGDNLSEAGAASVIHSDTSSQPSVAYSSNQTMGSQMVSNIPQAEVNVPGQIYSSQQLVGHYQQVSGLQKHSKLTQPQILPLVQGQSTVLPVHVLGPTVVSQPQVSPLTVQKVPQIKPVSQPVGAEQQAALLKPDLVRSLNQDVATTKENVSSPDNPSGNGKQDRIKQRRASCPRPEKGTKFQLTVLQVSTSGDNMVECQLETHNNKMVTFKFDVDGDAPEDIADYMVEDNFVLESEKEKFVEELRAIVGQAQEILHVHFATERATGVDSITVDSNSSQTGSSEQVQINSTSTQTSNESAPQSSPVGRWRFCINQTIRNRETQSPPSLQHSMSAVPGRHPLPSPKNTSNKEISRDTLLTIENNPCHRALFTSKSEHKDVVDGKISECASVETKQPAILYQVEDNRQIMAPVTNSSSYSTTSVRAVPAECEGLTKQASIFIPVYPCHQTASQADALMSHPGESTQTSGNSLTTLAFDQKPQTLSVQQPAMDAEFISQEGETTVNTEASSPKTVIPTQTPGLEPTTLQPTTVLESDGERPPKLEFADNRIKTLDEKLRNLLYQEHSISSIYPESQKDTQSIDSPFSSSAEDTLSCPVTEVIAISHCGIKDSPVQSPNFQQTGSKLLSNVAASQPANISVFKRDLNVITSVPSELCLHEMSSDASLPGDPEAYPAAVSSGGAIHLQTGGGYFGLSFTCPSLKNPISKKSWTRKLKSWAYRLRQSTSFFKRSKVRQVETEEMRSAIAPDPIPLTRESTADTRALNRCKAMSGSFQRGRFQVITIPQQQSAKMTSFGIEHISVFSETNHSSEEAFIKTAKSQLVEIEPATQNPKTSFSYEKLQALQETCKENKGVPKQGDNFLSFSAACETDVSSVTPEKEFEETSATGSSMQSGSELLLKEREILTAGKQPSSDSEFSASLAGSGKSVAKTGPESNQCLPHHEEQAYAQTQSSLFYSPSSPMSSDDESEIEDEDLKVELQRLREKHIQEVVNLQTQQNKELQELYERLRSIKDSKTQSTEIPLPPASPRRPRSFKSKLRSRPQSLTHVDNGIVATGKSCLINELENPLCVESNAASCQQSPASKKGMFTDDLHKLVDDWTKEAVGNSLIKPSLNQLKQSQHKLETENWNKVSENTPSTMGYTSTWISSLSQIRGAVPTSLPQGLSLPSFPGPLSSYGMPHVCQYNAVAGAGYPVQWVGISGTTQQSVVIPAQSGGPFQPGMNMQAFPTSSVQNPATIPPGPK
UniProt Q8TF30: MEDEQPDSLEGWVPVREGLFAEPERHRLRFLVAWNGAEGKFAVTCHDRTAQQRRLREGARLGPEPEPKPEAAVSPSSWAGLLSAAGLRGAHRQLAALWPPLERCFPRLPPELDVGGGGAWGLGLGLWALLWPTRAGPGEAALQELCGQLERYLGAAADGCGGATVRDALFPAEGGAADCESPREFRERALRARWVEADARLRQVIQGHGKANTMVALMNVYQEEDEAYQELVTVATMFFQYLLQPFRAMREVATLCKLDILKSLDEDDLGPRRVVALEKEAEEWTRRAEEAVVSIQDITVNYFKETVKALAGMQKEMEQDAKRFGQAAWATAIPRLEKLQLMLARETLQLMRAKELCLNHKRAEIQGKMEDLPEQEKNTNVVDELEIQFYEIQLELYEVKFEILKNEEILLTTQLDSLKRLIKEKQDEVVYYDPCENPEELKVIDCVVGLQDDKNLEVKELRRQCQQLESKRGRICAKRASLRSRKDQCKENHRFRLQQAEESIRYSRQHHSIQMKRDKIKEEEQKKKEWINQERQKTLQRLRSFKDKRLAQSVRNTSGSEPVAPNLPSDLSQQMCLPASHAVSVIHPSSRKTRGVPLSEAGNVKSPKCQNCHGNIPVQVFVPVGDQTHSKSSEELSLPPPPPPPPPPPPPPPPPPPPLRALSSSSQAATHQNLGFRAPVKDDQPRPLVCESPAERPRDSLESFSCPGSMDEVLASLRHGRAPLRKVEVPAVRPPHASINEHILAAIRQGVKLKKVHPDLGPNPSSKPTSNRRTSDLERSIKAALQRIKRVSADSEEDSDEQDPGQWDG
UniProt Q01831: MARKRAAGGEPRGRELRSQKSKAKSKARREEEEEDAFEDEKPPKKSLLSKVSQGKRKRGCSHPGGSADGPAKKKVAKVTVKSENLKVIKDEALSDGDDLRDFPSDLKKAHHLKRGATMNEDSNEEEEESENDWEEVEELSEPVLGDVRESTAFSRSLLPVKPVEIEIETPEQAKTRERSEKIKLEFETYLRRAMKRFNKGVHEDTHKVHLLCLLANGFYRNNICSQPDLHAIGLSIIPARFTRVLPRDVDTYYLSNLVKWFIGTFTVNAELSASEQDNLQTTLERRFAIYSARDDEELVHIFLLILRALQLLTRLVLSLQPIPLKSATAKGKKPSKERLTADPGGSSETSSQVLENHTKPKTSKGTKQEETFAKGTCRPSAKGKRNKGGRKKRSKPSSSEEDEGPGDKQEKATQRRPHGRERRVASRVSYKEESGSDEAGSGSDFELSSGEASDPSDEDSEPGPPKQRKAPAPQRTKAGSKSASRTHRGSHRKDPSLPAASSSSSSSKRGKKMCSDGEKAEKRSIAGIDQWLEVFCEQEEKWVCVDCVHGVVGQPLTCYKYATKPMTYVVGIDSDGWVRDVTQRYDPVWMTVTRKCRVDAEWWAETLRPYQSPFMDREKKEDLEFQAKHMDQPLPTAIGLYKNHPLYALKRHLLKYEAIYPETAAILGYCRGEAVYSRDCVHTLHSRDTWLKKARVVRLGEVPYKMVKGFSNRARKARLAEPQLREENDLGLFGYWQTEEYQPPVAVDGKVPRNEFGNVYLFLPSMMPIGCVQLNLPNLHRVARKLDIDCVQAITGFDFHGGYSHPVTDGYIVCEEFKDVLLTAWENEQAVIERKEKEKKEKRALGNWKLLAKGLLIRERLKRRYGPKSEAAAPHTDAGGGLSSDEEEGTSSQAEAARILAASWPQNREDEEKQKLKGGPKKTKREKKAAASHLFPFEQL

What follows are targets tested with CC1Cc2ccccc2N1C(=O)C1CCCN(C1)C(=O)CCl (mixture of isomers) [TRIM25 ligand 11 (diastereomer mixture)] (assay: probe-labelled cysteine peptide fold change vs DMSO (competition) (log2 fold change); higher = less target engagement (more negative = stronger competition)). Settings: 50 µM; THP-1; incubation time: 4 h.
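Further: competitive chemoproteomic profiling in live THP-1 cells with an iodoacetamide desthiobiotin (IA-DTB) probe, comparing probe-labelled peptide intensities in compound-treated cells against DMSO-treated controls.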

Target | probe-labelled cysteine peptide fold change
WDR59_Q6PJI9_163_NANCLATSHDGDVR (UniProt Q6PJI9) | -0.0111
WDR75_Q8IWA0_451_INMPHEDCITALCFCNAEK (UniProt Q8IWA0) | 0.0972
WDR26_Q9H7D7_316_CLYHNTK (UniProt Q9H7D7) | 0.0415
WDR43_Q15061_131_VNCIQWHQDSGCLYSCSDDK (UniProt Q15061) | 0.112
WDR4_P57081_227_QLHCCHLASLQELVDPQAPQK (UniProt P57081) | 0.203
WDR36_Q8NI36_866_SLSPDCGGSIEVMQSFLK (UniProt Q8NI36) | 0.233
WDR92_Q96MX6_339_GLCVCSSFDQTVR (UniProt Q96MX6) | 0.138
WDR76_Q9H967_81_NSNNEVACK (UniProt Q9H967) | -0.257
WDFY1_Q8IWB7_344_VCDSCYDSIKDEDR (UniProt Q8IWB7) | 0.016
WDR3_Q9UNX4_44_YVAVPACEHVFIWDLR (UniProt Q9UNX4) | 0.237
WNK3_Q9BYP7_278_CDNIFITGPTGSVK (UniProt Q9BYP7) | -0.0265
WDR61_Q9GZS3_303_IVSVGDDQEIHIYDCPI (UniProt Q9GZS3) | -0.221
WASF2_Q9Y6W5_27_SELECVTNITLANVIR (UniProt Q9Y6W5) | -0.21
WDR77_Q9BQA1_186_DSVFLSCSEDNR (UniProt Q9BQA1) | 0.0668
WARS2_Q9UGM6_102_QSILDMTAVLLACGINPEK (UniProt Q9UGM6) | 0.305
WDFY4_Q6ZS81_1763_HHQEEVLQAGLCTEGALLLLEMLK (UniProt Q6ZS81) | 0.181
WHAMM_Q8TF30_435_EKQDEVVYYDPCENPEELK (UniProt Q8TF30) | 0.0782
WDR7_Q9Y4E6_326_ELLICPPVTR (UniProt Q9Y4E6) | 0.185
XPC_Q01831_536_SIAGIDQWLEVFCEQEEK (UniProt Q01831) | 0.206
WDHD1_O75717_156_DIFLASASCDGSVR (UniProt O75717) | 0.176
WDFY3_Q8IZQ1_16_QEECSPQDNALGLMHLR (UniProt Q8IZQ1) | -0.149
WRNIP1_Q96S55_39_CLLLHPAGHAEPAAGSHR (UniProt Q96S55) | 0.231
WDCP_Q9H6R7_472_LIESLSPDFCHQNK (UniProt Q9H6R7) | -0.149
XPC_Q01831_60_GCSHPGGSADGPAK (UniProt Q01831) | -0.311

2 entries picked at random from the list so far, as already listed:
Target | probe-labelled cysteine peptide fold change
WDR26_Q9H7D7_316_CLYHNTK (UniProt Q9H7D7) | 0.0415
WDFY1_Q8IWB7_344_VCDSCYDSIKDEDR (UniProt Q8IWB7) | 0.016
